Results are given in words; binding and its absence hold for the method and conditions named. Binding seen in cells or lysates may run through a third protein. Some results given as binding are weak or reduced against the parent protein; the word gives no strength.
Experiments:
[1] = target: T1, aromatase (human (endogenous in JEG-3 and in human placental tissues)) (UniProt P11511); test: co-IP; endogenous proteins in JEG-3 lysate; lysis buffer 100 mM NaCl, 50 mM Tris-HCl (pH 8.0), 5 mM EDTA, 1% Brij35; antibody against the bait or rabbit IgG with protein A/G plus agarose; beads washed five times; western blot
T1 sequence: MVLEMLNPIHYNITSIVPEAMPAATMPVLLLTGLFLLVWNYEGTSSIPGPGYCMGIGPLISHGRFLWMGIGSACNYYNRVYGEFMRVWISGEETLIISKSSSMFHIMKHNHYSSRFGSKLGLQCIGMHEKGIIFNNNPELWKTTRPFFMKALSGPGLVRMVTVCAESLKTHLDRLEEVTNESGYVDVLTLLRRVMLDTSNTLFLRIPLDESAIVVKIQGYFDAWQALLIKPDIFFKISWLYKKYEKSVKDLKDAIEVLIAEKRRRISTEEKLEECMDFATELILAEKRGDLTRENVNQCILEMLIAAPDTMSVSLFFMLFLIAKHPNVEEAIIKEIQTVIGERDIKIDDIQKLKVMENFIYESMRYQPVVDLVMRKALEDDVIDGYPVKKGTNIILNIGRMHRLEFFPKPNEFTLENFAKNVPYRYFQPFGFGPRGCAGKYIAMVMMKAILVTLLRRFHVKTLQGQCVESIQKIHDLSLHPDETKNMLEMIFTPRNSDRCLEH

[2] = target: T1, aromatase (human (endogenous in JEG-3 and in human placental tissues)); test: proximity ligation; in situ PLA on human placental tissues; anti-aromatase rabbit polyclonal 1:100 and anti-RGS2 mouse monoclonal 1:50; Duolink detection (red dots)

binding [1]: binds
binding [2]: binds
B1: regulator of G-protein signaling 2 (RGS2) (protein, UniProt P41220 1-211)
chain: MQSAMFLAVQHDCRPMDKSAGSGHKSEEKREKMKRTLLKDWKTRLSYFLQNSSTPGKPKTGKKSKQQAFIKPSPEEAQLWSEAFDELLASKYGLAAFRAFLKSEFCEENIEFWLACEDFKKTKSPQKLSSKARKIYTDFIEKEAPKEINIDFQTKTLIAQNIQEATSGCFTTAQKRVYSLMENNSYPRFLESEFYQDLCKKPQITTEPHAT
